Reference: patent US9980982B2, “HE4 based therapy for malignant disease” (Women & Infants Hospital of Rhode Island, priority 2011, dated 2018)
Read-outs that look alike come from different tables or passages of the source. Some of these results come from one statement about several compounds together.

System: HE4 overexpressing SKOV-3 clones HE4C1, -C3, -C7
Assay: MTS cell viability assay, HE4 overexpressing SKOV-3 clones
Format: cell-based, Human
Procedure: An HE4 overexpressing vector for stable expression was engineered by inserting a coding sequence of human WAP four-disulfide core domain 2 (WFDC2) cDNA into a multiple cloning site of an eukaryotic expression vector, pCMV6-entry (Origene, Rockville, Md.). Transfection of the constructs in SKOV-3 cells was performed using Lipofectamine 2000 (Invitrogen, Carlsbad, Calif.) according to the manufacturer's instructions. Stably transfected cells were selected by resistance to G-418 (500 μg/ml) (Research Products International, Mount Prospect, Ill.), applied 48 h after transfection and continued during cell culture. G-418 resistant cells were resuspended (density 5 cells/ml) in complete medium/G-418 and seeded as 200 μl/well on a 96 well cell culture plate (Corning, New York, N.Y.). Cells growing from single colonies (cloned; stable transfection) were isolated.
Cell growth and viability of cell lines (complete medium, 24 h incubation) was determined by the CellTiter 96® AQueous One Solution Assay (Promega Corp, Madison, Wis.) following the manufacturer's recommendations with modifications (Lange T S et al., 2008 PLOS One, 3(5):e2303). Experiments are expressed as the mean of triplicate determinations (X±SD) of a representative experiment in OD (cell growth) or % of absorbance by drug-treated versus untreated cells [=100%] (cell viability). […]

Structure (SMILES)	fold lower response / loss of efficacy / resistance of HE4 overexpressing SKOV-3 clones compared to parental SKOV-3 (listed as Adriamycin)	fold lower response / loss of efficacy / resistance of HE4 overexpressing SKOV-3 clones compared to parental SKOV-3
COc1cccc2c1C(=O)c1c(O)c3c(c(O)c1C2=O)C[C@@](O)(C(=O)CO)C[C@@H]3O[C@H]1C[C@H](N)[C@H](O)[C@H](C)O1 [doxorubicin]	4-8 fold	
COc1cc([C@@H]2c3cc4c(cc3[C@@H](O[C@@H]3O[C@@H]5CO[C@@H](C)O[C@H]5[C@H](O)[C@H]3O)[C@H]3COC(=O)[C@H]23)OCO4)cc(OC)c1O [etoposide]		4-8 fold
